{
  "sequences": {"note": "The chains behind the UniProt entries cited, without tags or fusion partners. Residues count along the entry.", "UniProt Q04206": "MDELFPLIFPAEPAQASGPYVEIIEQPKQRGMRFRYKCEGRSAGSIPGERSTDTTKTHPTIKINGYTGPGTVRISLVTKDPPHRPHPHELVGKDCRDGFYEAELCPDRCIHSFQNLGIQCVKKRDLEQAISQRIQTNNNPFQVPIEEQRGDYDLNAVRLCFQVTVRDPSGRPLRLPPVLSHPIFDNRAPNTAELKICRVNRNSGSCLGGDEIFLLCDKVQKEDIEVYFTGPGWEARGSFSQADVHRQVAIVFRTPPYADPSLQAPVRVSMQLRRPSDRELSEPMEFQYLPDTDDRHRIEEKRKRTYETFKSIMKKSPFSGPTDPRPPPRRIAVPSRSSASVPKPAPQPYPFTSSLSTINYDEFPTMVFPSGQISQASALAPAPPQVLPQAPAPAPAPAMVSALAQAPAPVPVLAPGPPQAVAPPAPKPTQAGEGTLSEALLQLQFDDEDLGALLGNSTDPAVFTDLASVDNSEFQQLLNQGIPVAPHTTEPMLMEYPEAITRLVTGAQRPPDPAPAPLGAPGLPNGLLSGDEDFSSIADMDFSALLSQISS", "UniProt P61956": "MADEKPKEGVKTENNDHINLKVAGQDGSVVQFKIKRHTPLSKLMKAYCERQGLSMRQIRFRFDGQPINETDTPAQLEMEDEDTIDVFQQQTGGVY", "UniProt P55854, residues 1-92": "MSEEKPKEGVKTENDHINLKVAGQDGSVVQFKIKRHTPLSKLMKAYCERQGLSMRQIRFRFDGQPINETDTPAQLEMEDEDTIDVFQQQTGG"},
  "source": "paper PMC4603762",
  "biological_target": "NF-κB p65 (human (endogenous in SMMC7721)) (UniProt Q04206)",
  "experiment": "co-IP; SMMC7721 cells co-transfected with myc-Ubc9 and GFP-SUMO2 or GFP-SUMO3, lysed 24 h after transfection, with or without TNF-α (10 ng/ml, 30 min); anti-p65 antibody with Protein A agarose, 4 h at 4 °C; lysis buffer 50 mM HEPES pH 7.4, 150 mM NaCl, 2 mM EGTA, 0.1 % Triton X-100, NEM; isotype IgG as negative control; western blot",
  "note": "These are yes or no findings as the source states them, for the method shown. In cells and extracts the contact can be indirect. Some results given as binding are weak or reduced against the parent protein; the word gives no strength.",
  "data": [
    {"substance": "GFP-SUMO2 (from UniProt P61956 1-95)", "values": [
      {"measurement": "binding", "result": "binds weakly"}
    ]},
    {"substance": "GFP-SUMO3 (from UniProt P55854 1-92)", "values": [
      {"measurement": "binding", "result": "binds weakly"}
    ]}
  ]
}
